From PubChem BioAssay AID504327 (National Center for Advancing Translational Sciences (NCATS), 2011)
In all, about 390,000 compounds went through this assay and about 820 (0.21%) were called active. This list was built around the results that the source calls inconclusive (neither active nor inactive); the mix of calls is not that of the screen. Calls follow the shape of the dose curve; as a rule, active = well fitted inhibition curve with a large enough effect; inconclusive = small, poorly fitted or top-dose-only effect, or another doubt; inactive = no such curve, though single readings can be large or run the other way. Potencies of inconclusive entries are doubtful fits and often do not repeat.
Potency is read from the fitted curve at half-maximal effect.

Protein sequences, listed by entry. Tags and fused reporters are not part of them.
UniProt Q92830, whole entry, looked up: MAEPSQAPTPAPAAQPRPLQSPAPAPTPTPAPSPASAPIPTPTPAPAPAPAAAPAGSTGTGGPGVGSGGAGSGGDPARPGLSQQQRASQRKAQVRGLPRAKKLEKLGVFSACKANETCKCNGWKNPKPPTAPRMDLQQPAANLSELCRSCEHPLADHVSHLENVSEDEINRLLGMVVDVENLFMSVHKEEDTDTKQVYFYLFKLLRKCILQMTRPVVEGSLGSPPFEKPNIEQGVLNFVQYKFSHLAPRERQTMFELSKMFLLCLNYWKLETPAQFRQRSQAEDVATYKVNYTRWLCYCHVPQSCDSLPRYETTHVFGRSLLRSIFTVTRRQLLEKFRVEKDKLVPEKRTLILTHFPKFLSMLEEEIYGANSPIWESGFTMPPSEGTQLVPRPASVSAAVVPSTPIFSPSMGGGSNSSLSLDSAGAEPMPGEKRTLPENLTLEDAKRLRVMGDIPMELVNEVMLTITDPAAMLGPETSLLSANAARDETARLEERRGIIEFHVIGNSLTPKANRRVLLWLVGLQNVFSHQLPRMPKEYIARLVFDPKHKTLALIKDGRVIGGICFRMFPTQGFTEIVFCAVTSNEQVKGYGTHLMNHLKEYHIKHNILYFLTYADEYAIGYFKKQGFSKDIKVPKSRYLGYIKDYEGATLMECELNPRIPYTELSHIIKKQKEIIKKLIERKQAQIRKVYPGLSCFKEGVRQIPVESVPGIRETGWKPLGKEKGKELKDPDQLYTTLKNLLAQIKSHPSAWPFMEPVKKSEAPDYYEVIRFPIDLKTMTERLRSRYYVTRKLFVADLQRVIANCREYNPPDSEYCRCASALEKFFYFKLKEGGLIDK

These molecules were tested against Histone acetyltransferase KAT2A (Homo sapiens) (UniProt Q92830) (assay: qHTS Assay for Inhibitors of GCN5L2). Conditions: GCN5L2 HAT assay, ThioGlo1 CoA-SH fluorescence; series mostly up to 58.9 µM.
In short: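 Preincubate 20nM GCN5L2 with compound 15 min, RT → add 50uM ThioGlo1 + 75uM H3(1-25) + 70uM acetyl-CoA → read fluorescence 0 and 20 min. Primary qHTS; fluorescent artifacts likely.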
For `CC(C)Cc1nnc(NS(=O)(=O)c2ccc([N+](=O)[O-])cc2)s1`, the Potency was inconclusive: 39.8 µM [inhibitor, single point].
In the case of `COc1ccc(-c2cc(-c3cccs3)nc3sc(C#N)c(N)c23)cc1`, the Potency is reported as inconclusive: 14.1 µM [inhibitor, partial curve].
In the case of `Cc1cccc(C(=O)Nc2ccc3nc(SCC(=O)N4CCCC4)sc3c2)c1`, the Potency is reported as “inactive”.
In the case of `O=C(O)c1ccc(COc2c(F)c(F)c(F)c(F)c2F)o1`, the Potency is reported as “inactive”.
With `Nc1ccc(-c2nc3cc(N)ccc3o2)cc1` the Potency was inconclusive: 31.6 µM [inhibitor, partial curve].
With `Cc1noc(C)c1-c1ccc2ncnc(NCc3cccc(-c4ccccc4)c3)c2c1` the Potency was “inactive”.
In the case of `Cc1ccc(C(=O)Nc2ccc(N3CCN(C(=O)c4cccs4)CC3)cc2)c(Cl)c1`, the Potency is reported as “inactive”.
`O=C(N/N=C\c1ccco1)c1cncc(Br)c1` was tested, and the Potency was “inactive”.
With `O=C1/C(=C\c2ccc([N+](=O)[O-])cc2)CCc2ccccc21` the Potency was “inactive”.
In the case of `CCN(CC)c1ccc(N=Nc2nn(C)c(C)c2[N+](=O)[O-])cc1`, the Potency is reported as “inactive”.
For `CCCCn1c(SC(C)C(N)=O)nc2cc(C(=O)OC)ccc2c1=O` (centres undefined), the Potency was inconclusive: 39.8 µM [inhibitor, partial curve, poor fit].
In the case of `Cc1cc(N2CCN(C/C=C/c3ccccc3)CC2)n2ncnc2n1`, the Potency is reported as “inactive”.
With `CC1Cc2cc(/C=C3/SC(N4CCC(C(N)=O)CC4)=NC3=O)ccc2O1` (centres undefined) the Potency was “inactive”.
With `Cc1ccc(-c2cc(-c3ccccc3)c3c(N)c(S(C)(=O)=O)sc3n2)cc1` the Potency was inconclusive: 22.4 µM [inhibitor, partial curve].
For `CCOCCn1c(CN2CCN(C(=O)c3ccco3)CC2)nc2c1c(=O)n(C)c(=O)n2C`, the Potency was inconclusive: 0.708 µM [inhibitor, single point].
With `Cc1cc(=O)[nH]c(SCC(=O)c2ccccc2)c1C#N` the Potency was “inactive”.
`CC1=C(C#N)C(NC(=O)c2ccccc2)(C(F)(F)F)C(=O)N1` (centres undefined) was tested, and the Potency was “inactive”.
With `O=C(COc1ccc2ccccc2c1)Nc1ccc(Br)cc1C(=O)O` the Potency was inconclusive: 3.16 µM [inhibitor, partial curve].
`COc1ccc(CCNC(=O)c2cc(Nc3ccccc3)nc3ccccc23)cc1OC` was tested, and the Potency was inconclusive: 5.01 µM [inhibitor, full curve, poor fit].
For `CC(=O)N[C@@H](CSC/C=C(\C)CC/C=C(\C)CCC=C(C)C)C(=O)O`, the Potency was inconclusive: 28.2 µM [inhibitor, single point].
With `S=c1[nH]nc(CSc2nc3ccccc3s2)n1Cc1ccccc1` the Potency was inconclusive: 39.8 µM [inhibitor, single point].
In the case of `O=S(=O)(Nc1ncccn1)c1ccc(NC(=S)N2CCN(Cc3ccc(F)cc3Cl)CC2)cc1`, the Potency is reported as inconclusive: 39.8 µM [inhibitor, single point].
With `COc1ccc(CCN=C(N)NS(=O)(=O)c2cc(F)ccc2F)cc1` the Potency was inconclusive: 0.631 µM [inhibitor, full curve, poor fit].
With `COc1ccc(/C=N/NC(=O)c2cccnc2)cc1CN1CCCc2ccccc21` the Potency was “inactive”.
For `O=C(COc1ccccc1[N+](=O)[O-])Nc1ccc(Br)cc1`, the Potency was inconclusive: 28.2 µM [inhibitor, single point].
With `CCn1cc(Br)c(C(=O)NC(=S)Nc2ccc(C(=O)OC)cc2)n1` the Potency was “inactive”.
In the case of `C/C(=N\Nc1nc(N2CCCCCC2)nc(N2CCCCCC2)n1)c1ccccc1`, the Potency is reported as “inactive”.
With `Oc1ccccc1-c1nc2cnccn2c1Nc1ccc(Cl)cc1` the Potency was “inactive”.
In the case of `COc1cc([N+](=O)[O-])ccc1NC(=O)NNC(=O)c1sccc1C`, the Potency is reported as “inactive”.
`O=C(C1CCC1)N1CCN(c2ccc(Cl)cc2)CC1` was tested, and the Potency was “inactive”.
In the case of `CCn1nc(C)c2c(-c3ccccc3)cc(=O)n(C(C)C(=O)Nc3cc(C)ccc3C)c21` (centres undefined), the Potency is reported as “inactive”.
With `CCCCN(C(=O)C1CCCC1)C1CCS(=O)(=O)C1` (centres undefined) the Potency was inconclusive: 3.55 µM [inhibitor, single point].
For `CC(=O)c1cc(CC=C(C)C)c(O)cc1O`, the Potency was “inactive”.
In the case of `Cc1ccc(C(=O)NNC(=O)c2csc(N3CCOCC3)n2)o1`, the Potency is reported as inconclusive: 39.8 µM [inhibitor, single point].
In the case of `COc1cc(OC)cc(-c2nc3nc(C)c(CCC(=O)NCC(OC)OC)c(C)n3n2)c1`, the Potency is reported as “inactive”.
In the case of `CCOC(=O)c1nc(Nc2ccc(N3CCOCC3)cc2)c2ccccc2n1`, the Potency is reported as inconclusive: 8.91 µM [inhibitor, single point].
For `CSc1ccc(-c2nc3cccc(C)n3c2Nc2ccc3c(c2)OCO3)cc1`, the Potency was “inactive”.
With `O=C(CNC(=O)c1ccc(Br)o1)Nc1ccccc1` the Potency was inconclusive: 39.8 µM [inhibitor, single point].
`Cc1nc(NCc2ccccc2)c2cc[nH]c2n1` was tested, and the Potency was “inactive”.
With `Cc1cc2ccccc2c(=O)[nH]1` the Potency was “inactive”.
`Nc1c(C(=O)NCc2ccco2)c2nc3ccccc3nc2n1CCc1ccccc1` was tested, and the Potency was inconclusive: 28.2 µM [inhibitor, partial curve].
For `COc1ccc(CCCNC(=O)C2CCC(=O)N(CCCN3CCCC3=O)C2)cc1` (centres undefined), the Potency was inconclusive: 3.55 µM [inhibitor, full curve, poor fit].
`O=C(O)c1ccc(NS(=O)(=O)c2ccc3c(c2)C2C=CCC2C(c2ccccc2F)N3)cc1` (centres undefined) was tested, and the Potency was inconclusive: 31.6 µM [inhibitor, single point].
With `CCOc1ccccc1N1CCN(C(=O)c2cc(-c3cccnc3)nc3c(Cl)cccc23)CC1` the Potency was inconclusive: 6.31 µM [inhibitor, single point].
`Brc1ccc2c(c1)C(c1ccc(N3CCOCC3)cc1)=NNC(c1cccs1)=N2` was tested, and the Potency was “inactive”.
In the case of `O=C(CN1C(=O)C2CC=CCC2C1=O)NCc1ccc2c(c1)OCO2` (centres undefined), the Potency is reported as inconclusive: 0.708 µM [inhibitor, single point].
For `COc1cc(C(=O)NCCc2sc(-c3cccc(F)c3)nc2C)cc(OC)c1OC`, the Potency was inconclusive: 1 µM [inhibitor, single point].
With `Cc1ccc2c(C)c(C(=O)N3CCN(c4ncccn4)CC3)oc2c1C` the Potency was inconclusive: 7.08 µM [inhibitor, single point].
With `CN1C(=O)c2ccc(C(=O)Nc3ccc(Br)cn3)cc2C1=O` the Potency was inconclusive: 11.2 µM [inhibitor, partial curve].
